Among all 200,000 compounds or so, about 25 (0.01%) were called active. Inconclusive results, whose numbers are uncertain, are shown with a selection of clear calls. Calls follow the shape of the dose curve; as a rule, active = well fitted inhibition curve with a large enough effect in the signal ratio, with a control signal flat (not every such curve was filed as active); inconclusive = small, poorly fitted or top-dose-only effect, or effect the other way, or a change in a side signal; inactive = flat fitted curve, though single readings scatter; the % refers to the signal ratio. Where the call is inconclusive, the potency comes from a doubtful curve fit.
Experiment: qHTS Assay for Modulators of Lamin A Splicing
Conditions: HeLa LMNA splicing GFP/RFP minigene ratio, 48 h; ratio change, negative = inhibition: at 46.1 µM (top of the series) unless noted
How it was run: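 Read-out is the ratio of GFP to DsRed2 object intensity, acquired by 488 nm laser-scanning cytometry on HeLa lamin A-EGFP minigene reporter cells. Compound incubation 48 hrs at 37 °C in Opti-MEM with 2% FBS; DMSO 0.5% final.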
% is scaled to controls: 0 for no effect and ±100 for the full control effect; potency is read from the fitted curve at half-maximal effect.

Which “ratio change, negative = inhibition” value does the source give for `COc1cc(CN(C(=O)COc2ccccc2Cl)c2ccccn2)cc(OC)c1OC` here?
Its value is inactive: -14.6% [at 46 µM].

Which ratio change, negative = inhibition does the source give for `COc1ccc(CC(=O)Nc2cc(-c3nc4cccnc4s3)ccc2C)cc1` here?
Its ratio change, negative = inhibition is inconclusive: -10.2% [at 46 µM].

With `Cc1ccsc1/C=N/n1c(-c2ccccc2)n[nH]c1=S` as the compound, how does the “ratio change, negative = inhibition” value read?
The value was inactive: 2.07%.

With `C(=N\n1cnnc1)/c1ccccc1OCCOc1ccccc1` as the compound, how does the ratio change, negative = inhibition read?
The ratio change, negative = inhibition was inconclusive: 18.6%.

With `Cc1nn(CCc2nn[nH]n2)c2nc(C(F)(F)F)cc(C(F)(F)F)c12` as the compound, how does the “ratio change, negative = inhibition” value read?
The value was inactive: 9.34%.

Which “ratio change, negative = inhibition” value does the source give for `COc1cccc(CN(CC2CCCO2)C(=O)c2cc3ccccc3oc2=O)c1` (configuration not stated) here?
Its value is inactive: -7.05% [at 46 µM].

Which Potency does the source give for `O=S(=O)(Nc1cc(C(F)(F)F)ccc1N1CCOCC1)c1ccccc1` here?
The Potency was inconclusive: 17.8 µM [activator, partial curve, poor fit].

For `COC(=O)CN1C(=O)C(C)(C)c2cc(S(=O)(=O)NCc3ccc(Cl)cc3)ccc21`, which “ratio change, negative = inhibition” value is on record?
The value was inactive: -1.45% [at 46 µM].

Which ratio change, negative = inhibition does the source give for `Cc1ccc(OCc2nc(C#N)c(NCc3ccc4c(c3)OCO4)o2)cc1` here?
The ratio change, negative = inhibition was inconclusive: -30.2%.

With `O=[N+]([O-])c1cc(CN2CCN(c3cccc(C(F)(F)F)c3)CC2)c2cccnc2c1O` as the compound, how does the ratio change, negative = inhibition read?
The ratio change, negative = inhibition was inconclusive: 37.8% [at 9.22 µM].

For `Cc1ccccc1Nc1ncnc(N)n1`, which ratio change, negative = inhibition is on record?
The ratio change, negative = inhibition was inactive: -20.3% [at 9.22 µM].

For `COc1ccc(CCN(C)Cc2nc(Cc3ccc(OC)c(OC)c3)no2)cc1OC`, which ratio change, negative = inhibition is on record?
Its ratio change, negative = inhibition is inconclusive: 5.33% [at 46 µM].

Which ratio change, negative = inhibition does the source give for `Cc1onc(-c2ccccc2)c1C(=O)Nc1nc(-c2ccc(F)c(F)c2)cs1` here?
The ratio change, negative = inhibition was inconclusive: 21.5%.

Which ratio change, negative = inhibition does the source give for `COc1cccc(-c2[nH]c3c(c2-c2c(-n4cccc4)n(C)c(=O)[nH]c2=O)c(=O)[nH]c(=O)n3C)c1` here?
Its ratio change, negative = inhibition is inconclusive: 16.5% [at 46 µM].

For `CN(C)C(=O)c1ccc(-c2cncnc2NCc2ccccc2)cc1`, which “ratio change, negative = inhibition” value is on record?
The value was inactive: -2.81%.

Which Potency does the source give for `C/C(Cl)=C\Cn1c(NCCc2ccccc2)nc2c1c(=O)n(C)c(=O)n2C` here?
Its Potency is inconclusive: 3.16 µM [fluorescent, full curve].

For `CN(c1ccccc1)c1ccc(/C=C(\CCC(=O)O)c2nc3ccccc3s2)cc1[N+](=O)[O-]`, which Potency is on record?
The Potency was inconclusive: 12.6 µM [falling, single point].

With `CCOC(=O)C1=C(N)Oc2c(oc(CO)cc2=O)C1c1ccc(F)cc1` (configuration not stated) as the compound, how does the “ratio change, negative = inhibition” value read?
The value was inactive: -0.504%.

With `Cc1ccc(C(=O)N2CCc3cc(CNC(=O)c4ccnn4C)ccc32)cc1` as the compound, how does the ratio change, negative = inhibition read?
Its ratio change, negative = inhibition is inconclusive: -15.8% [at 46 µM].

For `COc1c(OC(C)=O)ccc(/C=C/c2ccc3cccc(OC)c3n2)c1[N+](=O)[O-]`, which ratio change, negative = inhibition is on record?
The ratio change, negative = inhibition was inconclusive: -34.6%.

Which ratio change, negative = inhibition does the source give for `COc1cc(C(=S)N(C)C)ccc1O` here?
Its ratio change, negative = inhibition is inconclusive: -14.1%.

For `CCOc1ccc(-c2ccc(SCC)nn2)cc1`, which “ratio change, negative = inhibition” value is on record?
Its value is inactive: -2.23% [at 46 µM].

With `O=c1c2cc(NC(=S)N3CCCC3)ccc2nc2n1CCCCC2` as the compound, how does the ratio change, negative = inhibition read?
Its ratio change, negative = inhibition is inconclusive: -19.7% [at 46 µM].

Which ratio change, negative = inhibition does the source give for `CC1(C(=O)Nc2cccc(S(=O)(=O)N3CCOCC3)c2)Cc2ccccc2C(=O)O1` (configuration not stated) here?
The ratio change, negative = inhibition was inconclusive: 15.8% [at 46 µM].

For `O=c1oc2ccccc2c(NCc2cccc(F)c2)c1[N+](=O)[O-]`, which Potency is on record?
The Potency was inconclusive: 35.5 µM [falling, single point].

Which ratio change, negative = inhibition does the source give for `O=C(Nc1cccc(C(=O)N2CCN(c3ccccc3F)CC2)c1)c1nsc2ccccc12` here?
The ratio change, negative = inhibition was inconclusive: -9.39% [at 46 µM].

Which ratio change, negative = inhibition does the source give for `Cc1ccc(C(=O)C2CCN(CC(=O)Nc3nc(C)cs3)CC2)cc1` here?
Its ratio change, negative = inhibition is inconclusive: -39.3%.

With `Fc1ccc(NC(=S)Nc2ccc(Cl)cc2)cc1` as the compound, how does the ratio change, negative = inhibition read?
The ratio change, negative = inhibition was inconclusive: -6.88% [at 46 µM].

Which “ratio change, negative = inhibition” value does the source give for `Cc1noc(C)c1C(=O)Nc1sc2c(c1C(N)=O)CCCCC2` here?
The value was inactive: 0.726%.

With `Cc1ccccc1C(=O)Nc1ccc2nc(Nc3cccc(C(F)(F)F)c3)cc(C)c2c1` as the compound, how does the ratio change, negative = inhibition read?
Its ratio change, negative = inhibition is inconclusive: -6.87% [at 46 µM].

With `COc1ccc(CCNC(=O)C2CCN(c3ncnc4c3nc3n4CCCCC3)CC2)c(OC)c1` as the compound, how does the “ratio change, negative = inhibition” value read?
The value was inactive: 2.59% [at 46 µM].

For `CCOC(=O)c1cccc(NC(=O)N2CC(CC)Sc3ccccc32)c1` (configuration not stated), which “ratio change, negative = inhibition” value is on record?
Its value is inactive: -2.98% [at 46 µM].

With `COc1cc(N)c(Cl)cc1C(=O)NC1CCN(Cc2ccccc2)CC1` as the compound, how does the ratio change, negative = inhibition read?
The ratio change, negative = inhibition was inconclusive: -7.23%.

For `c1ccc2c(c1)ncn2CCOCCOCCn1cnc2ccccc21`, which Potency is on record?
Its Potency is inconclusive: 35.5 µM [falling, single point].

Which “ratio change, negative = inhibition” value does the source give for `COc1cc([N+](=O)[O-])ccc1NC(=O)N1CCN(c2cc(-c3noc(C)n3)ccc2C)CC1` here?
Its value is inactive: 5.92% [at 46 µM].

Which “ratio change, negative = inhibition” value does the source give for `CCN1C(=O)c2cccc3c(S(=O)(=O)Nc4ccncc4)ccc1c23` here?
The value was inactive: -18.4%.

Which Potency does the source give for `COc1ccc(/C=C/C(=O)N2CCN(c3ccccc3)CC2)cc1S(=O)(=O)N1CCOCC1` here?
The Potency was inconclusive: 10 µM [inhibitor, partial curve, poor fit].

For `CCn1ccc2cc(S(=O)(=O)N3CCCN(C(=O)Nc4ccc(C)c(F)c4)CC3)ccc21`, which ratio change, negative = inhibition is on record?
Its ratio change, negative = inhibition is inconclusive: -43.6% [at 46 µM].

For `COc1ccc(CNC(=O)C(C)N2Cc3ccccc3C2=O)cc1` (configuration not stated), which ratio change, negative = inhibition is on record?
The ratio change, negative = inhibition was inconclusive: 2.64% [at 46 µM].

Which Potency does the source give for `N#Cc1c(-c2ccc3c(c2)OCO3)ccn2nc(-c3cccc(C(F)(F)F)c3)nc12` here?
The Potency was inconclusive: 20 µM [cytotoxic, single point].

Which “ratio change, negative = inhibition” value does the source give for `CC(C)Cn1c(SCC(=O)N2CCN(C(=O)c3ccco3)CC2)nc2ccccc2c1=O` here?
The value was inactive: 2.14% [at 46 µM].

With `O=C(CSc1nc2ncc(Br)cc2[nH]1)c1cccc([N+](=O)[O-])c1` as the compound, how does the ratio change, negative = inhibition read?
Its ratio change, negative = inhibition is inconclusive: -15.7%.

With `O=C(c1cc2ccccc2c(=O)o1)N1CCCCCC1` as the compound, how does the “ratio change, negative = inhibition” value read?
The value was inactive: 7.25%.

With `Oc1ccc(CCc2n[nH]c(=S)n2-c2ccc(F)cc2)cc1` as the compound, how does the “ratio change, negative = inhibition” value read?
Its value is inactive: -8.55% [at 46 µM].

For `Nc1nc(N)nc(-c2cc(Cl)ccc2Cl)n1`, which ratio change, negative = inhibition is on record?
Its ratio change, negative = inhibition is inconclusive: -0.551%.

Which ratio change, negative = inhibition does the source give for `C=CCOc1c(OC)cc(Cl)cc1C1NC(=O)NC(C)=C1C(C)=O` (configuration not stated) here?
The ratio change, negative = inhibition was inconclusive: 13.1%.

Which “ratio change, negative = inhibition” value does the source give for `Cc1ccc(C(=O)N/C(=C\c2ccco2)C(=O)NCCCn2ccnc2)cc1C` here?
Its value is inactive: -7.64%.

With `O=C(CCCCCCN1C(=O)c2ccccc2C1=O)Nc1nccs1` as the compound, how does the ratio change, negative = inhibition read?
The ratio change, negative = inhibition was inconclusive: -36.5%.

Which ratio change, negative = inhibition does the source give for `CCOC(=O)c1sc2ccccc2c1S(=O)(=O)NCc1ccc(F)cc1` here?
Its ratio change, negative = inhibition is inconclusive: -9.11% [at 46 µM].

For `Cc1ccc(C)c(NC(=S)N/N=C/C(C)c2ccccc2)c1` (configuration not stated), which ratio change, negative = inhibition is on record?
The ratio change, negative = inhibition was inconclusive: -2.79% [at 46 µM].

For `CCC(C)NC(=O)c1cc(-c2ccc(OC)cc2)on1` (configuration not stated), which “ratio change, negative = inhibition” value is on record?
Its value is inactive: 1.24%.

Which Potency does the source give for `Cc1ccc2nc(/C(C#N)=C\c3ccc([N+](=O)[O-])o3)[nH]c2c1` here?
The Potency was inconclusive: 5.62 µM [cytotoxic, single point].

From PubChem BioAssay AID1487 (National Center for Advancing Translational Sciences (NCATS), 2009)
